From article PMC9380471 come the findings set out here.

Sequences of proteins named here, by UniProt entry; tags and fusion partners are left off.
UniProt Q9NVR2: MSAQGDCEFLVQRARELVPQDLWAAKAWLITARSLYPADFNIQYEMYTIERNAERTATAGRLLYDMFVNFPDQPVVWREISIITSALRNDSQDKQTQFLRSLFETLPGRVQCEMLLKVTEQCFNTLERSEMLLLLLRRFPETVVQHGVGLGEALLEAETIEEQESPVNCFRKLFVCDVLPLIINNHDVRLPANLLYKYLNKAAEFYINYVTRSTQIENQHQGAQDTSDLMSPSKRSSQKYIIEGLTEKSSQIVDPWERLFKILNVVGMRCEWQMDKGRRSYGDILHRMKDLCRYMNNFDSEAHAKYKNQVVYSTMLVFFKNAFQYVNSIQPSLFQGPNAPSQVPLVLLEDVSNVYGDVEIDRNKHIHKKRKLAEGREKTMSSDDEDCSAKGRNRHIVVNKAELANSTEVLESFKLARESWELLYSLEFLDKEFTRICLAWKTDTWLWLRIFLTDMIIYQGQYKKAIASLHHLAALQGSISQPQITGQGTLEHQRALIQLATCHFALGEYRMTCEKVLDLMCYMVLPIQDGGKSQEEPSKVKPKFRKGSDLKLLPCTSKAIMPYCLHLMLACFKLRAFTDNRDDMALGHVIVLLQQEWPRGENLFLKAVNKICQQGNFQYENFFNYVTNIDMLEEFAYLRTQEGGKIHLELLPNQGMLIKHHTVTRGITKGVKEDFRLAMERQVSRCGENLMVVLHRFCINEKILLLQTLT
UniProt Q96N11: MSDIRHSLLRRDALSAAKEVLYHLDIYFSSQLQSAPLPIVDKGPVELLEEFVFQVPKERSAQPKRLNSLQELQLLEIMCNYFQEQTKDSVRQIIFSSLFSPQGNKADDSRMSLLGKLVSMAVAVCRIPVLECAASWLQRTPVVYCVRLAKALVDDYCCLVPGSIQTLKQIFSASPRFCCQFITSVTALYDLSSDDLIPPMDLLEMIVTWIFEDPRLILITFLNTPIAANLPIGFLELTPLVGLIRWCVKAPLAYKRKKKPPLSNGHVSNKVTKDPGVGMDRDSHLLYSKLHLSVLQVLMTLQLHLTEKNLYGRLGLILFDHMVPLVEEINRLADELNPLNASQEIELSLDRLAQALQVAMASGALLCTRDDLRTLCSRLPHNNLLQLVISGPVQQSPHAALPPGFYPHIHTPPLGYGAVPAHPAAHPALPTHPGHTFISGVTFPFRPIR
UniProt Q9NVM9: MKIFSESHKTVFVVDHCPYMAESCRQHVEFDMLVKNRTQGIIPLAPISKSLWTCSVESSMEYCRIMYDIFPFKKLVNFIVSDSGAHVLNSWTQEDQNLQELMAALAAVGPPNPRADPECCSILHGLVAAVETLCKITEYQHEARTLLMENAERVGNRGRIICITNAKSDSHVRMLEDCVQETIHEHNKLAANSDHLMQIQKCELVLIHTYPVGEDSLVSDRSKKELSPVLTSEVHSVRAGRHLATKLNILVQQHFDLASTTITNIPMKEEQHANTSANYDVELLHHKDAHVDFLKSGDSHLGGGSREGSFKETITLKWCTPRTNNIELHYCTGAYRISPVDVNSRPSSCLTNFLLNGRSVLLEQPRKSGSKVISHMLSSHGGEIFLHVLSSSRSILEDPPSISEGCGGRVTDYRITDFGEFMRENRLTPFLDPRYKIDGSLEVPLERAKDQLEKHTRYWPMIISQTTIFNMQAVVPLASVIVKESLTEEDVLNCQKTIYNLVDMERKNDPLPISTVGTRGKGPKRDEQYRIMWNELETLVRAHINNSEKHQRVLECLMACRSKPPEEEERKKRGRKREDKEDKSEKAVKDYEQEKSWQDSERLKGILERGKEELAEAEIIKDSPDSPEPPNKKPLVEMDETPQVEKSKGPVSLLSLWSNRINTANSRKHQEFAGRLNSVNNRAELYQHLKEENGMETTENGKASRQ

Results are given in words; binding and its absence hold for the method and conditions named. In cells and extracts the contact can be indirect. Some results given as binding are weak or reduced against the parent protein; the word gives no strength.

Experiment [1] concerns the target HIS-INTS10 (Expi293) (human) (UniProt Q9NVR2). Description: pull-down + SEC; HIS-INTS10, INTS13, INTS14 and C7orf26 co-expressed in Expi293; Ni-NTA agarose from lysate, then Superdex 200 Increase 10/300 GL in 50 mM HEPES pH 8.0, 150 mM KCl, 10% glycerol, 1 mM EDTA; fractions probed by western blot. On the technique in general: A western blot detects proteins with antibodies after separation by electrophoresis.

A further experiment addresses His8-INTS10 (human) (UniProt Q9NVR2). Description: pull-down; His8-INTS10 (or untagged INTS10) transfected into HEK 293T/17; lysate in IP lysis buffer (25 mM Tris-HCl pH 7.4, 150 mM NaCl, 1 mM EDTA, 1% NP-40, 5% glycerol) + 10 mM imidazole, cobalt magnetic beads, 4 degrees, eluted with 300 mM imidazole; western blot (the legend calls it co-immunoprecipitation).

Take “C7orf26 (overexpressed, Expi293) (from UniProt Q96N11 1-449)”: in experiment [1], the binding entry is recorded as “binds”.
As to “INTS13 (endogenous, HEK293T) (from UniProt Q9NVM9 1-706)”, the binding result with His8-INTS10 (human) is “binds”.
Turning to “INTS13 (overexpressed, Expi293) (from UniProt Q9NVM9 1-706)”, in experiment [1], the binding result is “binds”.
For the substance “endogenous C7orf26 (from UniProt Q96N11 1-449)”, the binding entry with His8-INTS10 (human) is recorded as “binds”.
